Our source for the binding values is publication PMC10164591, “RNA binding proteins Smaug and Cup induce CCR4–NOT-dependent deadenylation of the nanos mRNA in a reconstituted system”.

Results are given in words; binding and its absence hold for the method and conditions named. Some binding calls cover weakened binding; strength is not graded here. For part of these data: Where a sequence is shown, tags or fusion partners need not be part of it.

Experiment [1] deals with T1, Smaug (split-ubiquitin two-hybrid bait) (D. melanogaster) (UniProt Q23972).
T1 sequence: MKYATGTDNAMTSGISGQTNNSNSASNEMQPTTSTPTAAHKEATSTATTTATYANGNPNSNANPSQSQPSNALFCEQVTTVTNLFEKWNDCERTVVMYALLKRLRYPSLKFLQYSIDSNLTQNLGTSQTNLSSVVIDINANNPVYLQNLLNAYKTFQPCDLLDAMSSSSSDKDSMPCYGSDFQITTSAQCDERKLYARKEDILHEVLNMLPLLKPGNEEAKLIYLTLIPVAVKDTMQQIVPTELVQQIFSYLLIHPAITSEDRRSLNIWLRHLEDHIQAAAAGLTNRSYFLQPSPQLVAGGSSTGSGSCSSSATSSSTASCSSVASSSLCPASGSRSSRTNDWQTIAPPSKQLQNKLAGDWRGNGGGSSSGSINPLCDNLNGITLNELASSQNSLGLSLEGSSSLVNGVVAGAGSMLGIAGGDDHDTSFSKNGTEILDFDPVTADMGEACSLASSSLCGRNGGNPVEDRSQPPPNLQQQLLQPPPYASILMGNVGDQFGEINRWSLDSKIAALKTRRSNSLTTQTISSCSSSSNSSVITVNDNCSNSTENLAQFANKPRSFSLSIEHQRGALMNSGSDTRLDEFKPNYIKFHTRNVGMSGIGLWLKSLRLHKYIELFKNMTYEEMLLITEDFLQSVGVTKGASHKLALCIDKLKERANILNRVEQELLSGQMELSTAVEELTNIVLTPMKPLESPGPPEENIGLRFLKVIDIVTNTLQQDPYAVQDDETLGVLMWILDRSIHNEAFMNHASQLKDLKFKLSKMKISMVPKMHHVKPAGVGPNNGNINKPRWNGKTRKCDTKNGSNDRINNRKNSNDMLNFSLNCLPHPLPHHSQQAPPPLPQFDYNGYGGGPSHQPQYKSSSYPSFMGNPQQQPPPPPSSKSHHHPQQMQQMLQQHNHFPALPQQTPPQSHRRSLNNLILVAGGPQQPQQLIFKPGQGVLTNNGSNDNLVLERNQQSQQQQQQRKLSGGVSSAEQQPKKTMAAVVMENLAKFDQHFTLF
Briefly: two-hybrid; split-ubiquitin yeast two-hybrid, NMY51 cells, Smaug as bait; growth on SC agar lacking Trp, Leu, His and adenine, three days.

The target in experiment [2] is NOT1 fused with mCherry and the PH domain of rat phospholipase Cδ1 (D. melanogaster) (UniProt A8DY81). Briefly: ReLo (relocalization) assay; Drosophila S2R+ cells co-transfected with pAc5.1 plasmids; bait on the plasma membrane through a PH domain, prey with a fluorescent tag; live confocal fluorescence microscopy after two days.
Experiment [3] concerns the target T2, NOT2 fused with mCherry and the PH domain of rat phospholipase Cδ1 (D. melanogaster), Q94547.
T2 chain: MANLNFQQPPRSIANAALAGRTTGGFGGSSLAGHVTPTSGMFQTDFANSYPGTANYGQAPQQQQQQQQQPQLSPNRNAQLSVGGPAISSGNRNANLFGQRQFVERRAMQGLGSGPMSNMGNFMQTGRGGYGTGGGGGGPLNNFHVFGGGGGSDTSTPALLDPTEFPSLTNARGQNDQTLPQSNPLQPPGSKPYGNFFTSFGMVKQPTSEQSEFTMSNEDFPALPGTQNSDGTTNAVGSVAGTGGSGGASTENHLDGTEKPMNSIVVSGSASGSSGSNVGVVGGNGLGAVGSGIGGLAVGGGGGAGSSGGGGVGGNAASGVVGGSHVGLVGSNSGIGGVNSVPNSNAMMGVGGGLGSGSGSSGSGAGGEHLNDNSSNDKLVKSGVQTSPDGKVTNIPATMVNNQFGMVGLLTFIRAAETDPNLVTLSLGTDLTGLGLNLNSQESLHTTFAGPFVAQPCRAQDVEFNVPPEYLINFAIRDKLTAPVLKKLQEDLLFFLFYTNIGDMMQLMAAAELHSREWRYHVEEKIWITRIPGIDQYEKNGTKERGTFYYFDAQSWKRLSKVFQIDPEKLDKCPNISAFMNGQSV
The experiment is described as above. As to conditions: remark: other sources report otherwise.

B1: NOT1 fragment comprising amino acids 752–910 (split-ubiquitin two-hybrid prey) (domain or fragment, UniProt A8DY81 752-910)
chain: NVAIMANKARAQQQQQPGLVPPPPPTILRGHRGMDLPGGIVPPPPQQPFSGNLNAQMFGPGMDPLTNMSNNLAGLNLSGPNGAFNFGNMLTSPSRLMTPGANPYPLNLMQMPQAPPPPNVGNLGRMLPGGPQQQTPTPTPTAPNPNNPVMADLQIPVSK
As for B1, the binding result in experiment [1] is recorded as “binds”.

B2: EGFP-Smaug (protein, UniProt Q23972 1-999)
chain: MKYATGTDNAMTSGISGQTNNSNSASNEMQPTTSTPTAAHKEATSTATTTATYANGNPNSNANPSQSQPSNALFCEQVTTVTNLFEKWNDCERTVVMYALLKRLRYPSLKFLQYSIDSNLTQNLGTSQTNLSSVVIDINANNPVYLQNLLNAYKTFQPCDLLDAMSSSSSDKDSMPCYGSDFQITTSAQCDERKLYARKEDILHEVLNMLPLLKPGNEEAKLIYLTLIPVAVKDTMQQIVPTELVQQIFSYLLIHPAITSEDRRSLNIWLRHLEDHIQAAAAGLTNRSYFLQPSPQLVAGGSSTGSGSCSSSATSSSTASCSSVASSSLCPASGSRSSRTNDWQTIAPPSKQLQNKLAGDWRGNGGGSSSGSINPLCDNLNGITLNELASSQNSLGLSLEGSSSLVNGVVAGAGSMLGIAGGDDHDTSFSKNGTEILDFDPVTADMGEACSLASSSLCGRNGGNPVEDRSQPPPNLQQQLLQPPPYASILMGNVGDQFGEINRWSLDSKIAALKTRRSNSLTTQTISSCSSSSNSSVITVNDNCSNSTENLAQFANKPRSFSLSIEHQRGALMNSGSDTRLDEFKPNYIKFHTRNVGMSGIGLWLKSLRLHKYIELFKNMTYEEMLLITEDFLQSVGVTKGASHKLALCIDKLKERANILNRVEQELLSGQMELSTAVEELTNIVLTPMKPLESPGPPEENIGLRFLKVIDIVTNTLQQDPYAVQDDETLGVLMWILDRSIHNEAFMNHASQLKDLKFKLSKMKISMVPKMHHVKPAGVGPNNGNINKPRWNGKTRKCDTKNGSNDRINNRKNSNDMLNFSLNCLPHPLPHHSQQAPPPLPQFDYNGYGGGPSHQPQYKSSSYPSFMGNPQQQPPPPPSSKSHHHPQQMQQMLQQHNHFPALPQQTPPQSHRRSLNNLILVAGGPQQPQQLIFKPGQGVLTNNGSNDNLVLERNQQSQQQQQQRKLSGGVSSAEQQPKKTMAAVVMENLAKFDQHFTLF
Regarding B2, the binding result in experiment [2] is “no binding”.

B3: EGFP-Smaug, Q23972 1-999 (protein)
chain: MKYATGTDNAMTSGISGQTNNSNSASNEMQPTTSTPTAAHKEATSTATTTATYANGNPNSNANPSQSQPSNALFCEQVTTVTNLFEKWNDCERTVVMYALLKRLRYPSLKFLQYSIDSNLTQNLGTSQTNLSSVVIDINANNPVYLQNLLNAYKTFQPCDLLDAMSSSSSDKDSMPCYGSDFQITTSAQCDERKLYARKEDILHEVLNMLPLLKPGNEEAKLIYLTLIPVAVKDTMQQIVPTELVQQIFSYLLIHPAITSEDRRSLNIWLRHLEDHIQAAAAGLTNRSYFLQPSPQLVAGGSSTGSGSCSSSATSSSTASCSSVASSSLCPASGSRSSRTNDWQTIAPPSKQLQNKLAGDWRGNGGGSSSGSINPLCDNLNGITLNELASSQNSLGLSLEGSSSLVNGVVAGAGSMLGIAGGDDHDTSFSKNGTEILDFDPVTADMGEACSLASSSLCGRNGGNPVEDRSQPPPNLQQQLLQPPPYASILMGNVGDQFGEINRWSLDSKIAALKTRRSNSLTTQTISSCSSSSNSSVITVNDNCSNSTENLAQFANKPRSFSLSIEHQRGALMNSGSDTRLDEFKPNYIKFHTRNVGMSGIGLWLKSLRLHKYIELFKNMTYEEMLLITEDFLQSVGVTKGASHKLALCIDKLKERANILNRVEQELLSGQMELSTAVEELTNIVLTPMKPLESPGPPEENIGLRFLKVIDIVTNTLQQDPYAVQDDETLGVLMWILDRSIHNEAFMNHASQLKDLKFKLSKMKISMVPKMHHVKPAGVGPNNGNINKPRWNGKTRKCDTKNGSNDRINNRKNSNDMLNFSLNCLPHPLPHHSQQAPPPLPQFDYNGYGGGPSHQPQYKSSSYPSFMGNPQQQPPPPPSSKSHHHPQQMQQMLQQHNHFPALPQQTPPQSHRRSLNNLILVAGGPQQPQQLIFKPGQGVLTNNGSNDNLVLERNQQSQQQQQQRKLSGGVSSAEQQPKKTMAAVVMENLAKFDQHFTLF
Regarding B3, the binding entry in experiment [3] is given as “no binding”.
